In the supplement of paper PMC10849652:
The other results are listed elsewhere or left out.

The chains behind the UniProt entries cited, without tags or fusion partners. Where a name states a change or a piece, a line headed by the entry shows the natural chain unless it says otherwise.
UniProt Q9BQC3: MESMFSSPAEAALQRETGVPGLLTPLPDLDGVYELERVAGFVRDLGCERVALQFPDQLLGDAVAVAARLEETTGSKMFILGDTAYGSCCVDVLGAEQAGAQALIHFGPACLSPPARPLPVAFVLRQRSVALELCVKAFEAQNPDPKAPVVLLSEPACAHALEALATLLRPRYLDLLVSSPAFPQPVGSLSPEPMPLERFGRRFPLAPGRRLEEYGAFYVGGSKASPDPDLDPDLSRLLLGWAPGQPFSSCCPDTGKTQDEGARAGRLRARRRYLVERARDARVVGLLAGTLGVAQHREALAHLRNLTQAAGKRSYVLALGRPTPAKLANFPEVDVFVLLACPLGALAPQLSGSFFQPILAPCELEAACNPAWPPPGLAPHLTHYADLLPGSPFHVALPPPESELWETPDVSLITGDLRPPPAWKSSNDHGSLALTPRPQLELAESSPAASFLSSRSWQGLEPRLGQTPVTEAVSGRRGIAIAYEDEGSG
UniProt Q7RTS9: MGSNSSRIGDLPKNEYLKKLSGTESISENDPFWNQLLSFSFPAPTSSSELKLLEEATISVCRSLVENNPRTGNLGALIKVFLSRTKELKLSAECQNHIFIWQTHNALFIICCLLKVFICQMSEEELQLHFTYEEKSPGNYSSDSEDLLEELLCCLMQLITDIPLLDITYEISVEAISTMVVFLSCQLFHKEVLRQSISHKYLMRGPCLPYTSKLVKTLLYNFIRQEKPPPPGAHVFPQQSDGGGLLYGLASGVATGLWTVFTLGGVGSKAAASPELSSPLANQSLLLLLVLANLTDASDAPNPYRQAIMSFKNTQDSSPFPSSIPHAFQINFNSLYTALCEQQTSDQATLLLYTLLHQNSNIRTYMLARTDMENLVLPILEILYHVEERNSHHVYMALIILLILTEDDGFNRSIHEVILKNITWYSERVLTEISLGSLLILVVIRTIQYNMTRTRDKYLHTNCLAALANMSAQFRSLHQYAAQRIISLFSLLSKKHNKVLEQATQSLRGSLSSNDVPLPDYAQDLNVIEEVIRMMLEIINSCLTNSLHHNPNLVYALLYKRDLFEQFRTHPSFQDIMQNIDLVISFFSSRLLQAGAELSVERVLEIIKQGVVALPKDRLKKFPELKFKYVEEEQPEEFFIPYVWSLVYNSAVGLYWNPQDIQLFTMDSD
UniProt Q9Y6G9, whole entry, looked up: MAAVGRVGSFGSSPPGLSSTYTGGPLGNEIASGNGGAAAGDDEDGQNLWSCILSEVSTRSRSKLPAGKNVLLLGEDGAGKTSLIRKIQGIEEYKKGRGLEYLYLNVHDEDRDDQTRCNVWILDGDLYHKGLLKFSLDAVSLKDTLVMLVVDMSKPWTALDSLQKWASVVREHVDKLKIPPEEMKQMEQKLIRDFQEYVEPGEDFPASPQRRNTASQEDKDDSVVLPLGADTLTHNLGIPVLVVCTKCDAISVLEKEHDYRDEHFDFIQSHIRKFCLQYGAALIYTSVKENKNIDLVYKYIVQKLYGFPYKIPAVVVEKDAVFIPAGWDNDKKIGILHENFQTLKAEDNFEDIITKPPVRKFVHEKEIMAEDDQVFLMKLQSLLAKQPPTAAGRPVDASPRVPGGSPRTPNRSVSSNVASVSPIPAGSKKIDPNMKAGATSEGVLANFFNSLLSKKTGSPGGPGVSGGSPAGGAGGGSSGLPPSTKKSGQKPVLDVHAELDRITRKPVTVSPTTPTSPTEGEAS
UniProt O60739, whole entry, looked up: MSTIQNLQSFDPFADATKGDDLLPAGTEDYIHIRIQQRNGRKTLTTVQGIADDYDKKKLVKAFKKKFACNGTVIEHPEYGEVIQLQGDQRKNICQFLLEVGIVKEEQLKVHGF
UniProt Q8N5C7: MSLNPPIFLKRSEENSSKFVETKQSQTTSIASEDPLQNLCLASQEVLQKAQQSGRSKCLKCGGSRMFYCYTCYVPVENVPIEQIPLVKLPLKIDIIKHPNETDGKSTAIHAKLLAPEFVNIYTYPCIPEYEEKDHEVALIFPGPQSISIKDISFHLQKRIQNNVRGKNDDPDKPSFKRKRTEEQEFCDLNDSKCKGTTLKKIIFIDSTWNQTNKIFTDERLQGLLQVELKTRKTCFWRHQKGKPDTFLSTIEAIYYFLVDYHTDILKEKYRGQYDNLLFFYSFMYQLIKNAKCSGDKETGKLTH
UniProt Q9NX74: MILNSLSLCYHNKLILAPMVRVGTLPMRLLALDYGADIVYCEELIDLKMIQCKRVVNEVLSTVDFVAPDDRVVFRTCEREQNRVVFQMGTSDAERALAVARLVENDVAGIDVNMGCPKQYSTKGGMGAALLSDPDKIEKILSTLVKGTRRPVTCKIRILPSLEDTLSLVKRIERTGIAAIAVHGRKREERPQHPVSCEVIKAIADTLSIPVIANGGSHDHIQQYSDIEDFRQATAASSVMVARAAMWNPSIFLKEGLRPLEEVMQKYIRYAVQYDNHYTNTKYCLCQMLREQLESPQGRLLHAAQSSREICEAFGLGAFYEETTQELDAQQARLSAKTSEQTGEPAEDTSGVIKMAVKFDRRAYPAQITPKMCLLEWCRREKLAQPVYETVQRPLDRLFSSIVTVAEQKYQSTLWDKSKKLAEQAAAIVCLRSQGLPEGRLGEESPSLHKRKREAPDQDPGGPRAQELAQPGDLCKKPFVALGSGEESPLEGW
UniProt Q9BTV6: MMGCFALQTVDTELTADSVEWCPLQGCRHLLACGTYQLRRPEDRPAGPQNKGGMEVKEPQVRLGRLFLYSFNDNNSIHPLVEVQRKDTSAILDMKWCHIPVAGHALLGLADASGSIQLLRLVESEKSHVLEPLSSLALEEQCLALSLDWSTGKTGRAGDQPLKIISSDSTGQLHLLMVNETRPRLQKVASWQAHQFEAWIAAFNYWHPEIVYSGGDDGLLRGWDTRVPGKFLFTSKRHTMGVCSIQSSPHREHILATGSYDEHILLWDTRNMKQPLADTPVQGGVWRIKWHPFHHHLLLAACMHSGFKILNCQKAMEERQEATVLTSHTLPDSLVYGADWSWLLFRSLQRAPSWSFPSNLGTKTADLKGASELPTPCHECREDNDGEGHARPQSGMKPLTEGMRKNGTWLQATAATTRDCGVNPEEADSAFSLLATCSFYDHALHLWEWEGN
UniProt Q96DC8: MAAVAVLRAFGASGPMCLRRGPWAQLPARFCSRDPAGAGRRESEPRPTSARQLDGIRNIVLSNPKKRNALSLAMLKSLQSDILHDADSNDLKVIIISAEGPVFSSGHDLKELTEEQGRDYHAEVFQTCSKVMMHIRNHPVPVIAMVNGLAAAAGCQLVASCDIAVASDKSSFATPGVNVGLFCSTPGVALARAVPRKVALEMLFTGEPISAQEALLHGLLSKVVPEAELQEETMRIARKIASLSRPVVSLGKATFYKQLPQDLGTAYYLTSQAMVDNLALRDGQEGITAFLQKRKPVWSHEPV
UniProt Q8TCX1: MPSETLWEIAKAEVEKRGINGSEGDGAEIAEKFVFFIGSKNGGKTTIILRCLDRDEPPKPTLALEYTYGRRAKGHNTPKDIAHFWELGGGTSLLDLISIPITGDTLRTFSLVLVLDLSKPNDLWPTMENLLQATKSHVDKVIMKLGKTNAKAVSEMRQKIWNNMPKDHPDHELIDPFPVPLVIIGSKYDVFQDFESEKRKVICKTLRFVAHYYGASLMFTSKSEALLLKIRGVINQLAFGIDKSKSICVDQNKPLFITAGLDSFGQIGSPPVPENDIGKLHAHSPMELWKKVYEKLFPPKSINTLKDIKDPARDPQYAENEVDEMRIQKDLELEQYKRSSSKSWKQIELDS
UniProt O00716: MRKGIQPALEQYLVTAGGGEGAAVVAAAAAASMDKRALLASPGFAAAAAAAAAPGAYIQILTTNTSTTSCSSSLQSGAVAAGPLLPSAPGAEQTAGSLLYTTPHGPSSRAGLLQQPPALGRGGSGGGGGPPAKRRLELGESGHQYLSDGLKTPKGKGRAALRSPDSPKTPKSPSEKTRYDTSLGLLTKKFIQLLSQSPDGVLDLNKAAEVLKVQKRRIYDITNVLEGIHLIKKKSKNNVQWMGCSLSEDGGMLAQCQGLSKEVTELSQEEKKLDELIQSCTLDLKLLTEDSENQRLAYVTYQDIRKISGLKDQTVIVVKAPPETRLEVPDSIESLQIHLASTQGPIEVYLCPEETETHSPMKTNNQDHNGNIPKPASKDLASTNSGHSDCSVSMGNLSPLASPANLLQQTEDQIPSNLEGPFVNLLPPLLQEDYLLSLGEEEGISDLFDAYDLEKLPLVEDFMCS
UniProt O60869: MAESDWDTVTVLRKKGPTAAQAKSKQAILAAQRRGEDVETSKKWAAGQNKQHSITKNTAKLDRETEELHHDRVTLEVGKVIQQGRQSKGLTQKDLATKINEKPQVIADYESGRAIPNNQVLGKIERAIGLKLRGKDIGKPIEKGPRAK
UniProt Q9NRW4: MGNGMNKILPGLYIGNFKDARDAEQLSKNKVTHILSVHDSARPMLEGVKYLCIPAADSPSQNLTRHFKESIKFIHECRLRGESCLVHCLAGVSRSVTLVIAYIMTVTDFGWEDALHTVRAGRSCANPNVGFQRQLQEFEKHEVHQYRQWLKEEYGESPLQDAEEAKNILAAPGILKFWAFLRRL
UniProt O95905: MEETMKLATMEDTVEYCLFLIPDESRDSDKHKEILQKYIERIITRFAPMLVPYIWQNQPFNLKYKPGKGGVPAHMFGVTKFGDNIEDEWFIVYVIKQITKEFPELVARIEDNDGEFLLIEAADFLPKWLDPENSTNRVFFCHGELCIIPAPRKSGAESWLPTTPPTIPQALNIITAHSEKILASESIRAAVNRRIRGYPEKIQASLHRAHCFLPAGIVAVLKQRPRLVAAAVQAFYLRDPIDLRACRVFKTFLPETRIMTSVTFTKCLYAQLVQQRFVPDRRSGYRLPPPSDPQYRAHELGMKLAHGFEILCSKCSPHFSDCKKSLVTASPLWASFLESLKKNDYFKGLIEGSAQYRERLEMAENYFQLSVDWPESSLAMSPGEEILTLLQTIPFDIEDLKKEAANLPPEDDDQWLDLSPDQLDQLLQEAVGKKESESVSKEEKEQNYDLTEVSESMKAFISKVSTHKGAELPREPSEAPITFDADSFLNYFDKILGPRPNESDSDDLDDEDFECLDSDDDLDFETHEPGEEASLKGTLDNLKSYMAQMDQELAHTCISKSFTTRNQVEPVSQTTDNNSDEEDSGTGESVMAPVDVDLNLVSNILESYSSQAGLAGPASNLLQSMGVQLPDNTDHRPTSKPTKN
UniProt Q96FJ2, whole entry, looked up: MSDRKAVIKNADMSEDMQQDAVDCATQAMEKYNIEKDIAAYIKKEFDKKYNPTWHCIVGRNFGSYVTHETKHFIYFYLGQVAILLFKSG
UniProt Q9H9B1: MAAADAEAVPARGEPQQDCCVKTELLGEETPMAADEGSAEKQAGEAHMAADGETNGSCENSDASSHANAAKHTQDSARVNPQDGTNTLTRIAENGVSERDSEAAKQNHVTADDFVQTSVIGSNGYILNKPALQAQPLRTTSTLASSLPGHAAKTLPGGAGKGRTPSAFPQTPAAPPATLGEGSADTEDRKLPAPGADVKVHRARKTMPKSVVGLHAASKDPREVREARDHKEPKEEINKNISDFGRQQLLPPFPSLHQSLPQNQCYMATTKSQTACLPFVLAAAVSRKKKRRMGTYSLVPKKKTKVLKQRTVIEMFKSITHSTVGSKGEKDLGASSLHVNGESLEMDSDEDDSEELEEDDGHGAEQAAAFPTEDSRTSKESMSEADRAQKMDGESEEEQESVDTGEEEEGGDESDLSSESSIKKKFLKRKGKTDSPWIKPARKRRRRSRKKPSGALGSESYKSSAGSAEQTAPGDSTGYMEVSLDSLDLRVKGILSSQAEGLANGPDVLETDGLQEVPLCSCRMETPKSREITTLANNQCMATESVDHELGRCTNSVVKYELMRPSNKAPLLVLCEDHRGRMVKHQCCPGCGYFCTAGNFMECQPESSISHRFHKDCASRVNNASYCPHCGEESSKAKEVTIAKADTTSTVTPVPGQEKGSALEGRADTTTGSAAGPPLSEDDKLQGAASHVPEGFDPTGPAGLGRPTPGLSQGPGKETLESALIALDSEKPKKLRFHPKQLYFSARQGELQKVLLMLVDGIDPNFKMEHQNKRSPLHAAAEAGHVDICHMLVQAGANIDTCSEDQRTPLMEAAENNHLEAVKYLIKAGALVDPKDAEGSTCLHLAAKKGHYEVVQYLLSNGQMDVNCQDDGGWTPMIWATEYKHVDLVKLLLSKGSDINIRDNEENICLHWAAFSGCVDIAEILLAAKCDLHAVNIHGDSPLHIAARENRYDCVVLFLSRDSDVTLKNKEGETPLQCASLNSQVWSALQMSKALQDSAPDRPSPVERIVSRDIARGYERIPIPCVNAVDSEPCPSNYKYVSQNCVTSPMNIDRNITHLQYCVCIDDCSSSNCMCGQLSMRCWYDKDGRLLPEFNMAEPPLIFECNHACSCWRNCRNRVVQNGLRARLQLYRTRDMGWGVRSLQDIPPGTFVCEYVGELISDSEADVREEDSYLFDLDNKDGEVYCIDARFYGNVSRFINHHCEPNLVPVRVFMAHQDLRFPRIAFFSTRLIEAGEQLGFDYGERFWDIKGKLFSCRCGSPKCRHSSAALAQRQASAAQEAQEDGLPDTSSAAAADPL

How the values were obtained:
Assay in all cases: log2 fold change, soluble protein after heating vs DMSO (PISA); higher = thermal stabilisation; K562 lysate, 10 uM; active = over 0.2 and 3.5 SD of the protein, either way, in both replicates (recomputed)
[1] = compound: C1=CC=C(C=C1)[C@H](COC2=CC3=C(C=C2)NC(=O)N3)NC(=O)C4=CC=CN(C4=O)CC5=CC(=C(C=C5)F)F
Outline: (§1)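 Pellets of K562 cells were dounce-homogenised in PBS pH 7.4 with 1 mM MgCl2, and the crude extract was held at 1 mg/mL protein for a 30 min treatment with 10 μM compound. Aliquots were heated for 3 min over 48°C-58°C and pooled before NP-40 was added to 0.5% at 4°C. The supernatant from 21,000xg for 90 min was quantified by TMTpro 16plex LC-MS/MS with channel sums equalised. Values are reported from duplicates as log-two fold change in thermal stability relative to solvent controls.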

[2] = compound: CC1=C(SC2=C1C(=N[C@H](C3=NN=C(N32)C)CC(=O)N)C4=CC=C(C=C4)Cl)C
Outline: as §1

[3] = compound: CC1=C2C(=CC=C1)N=C(N(C2=O)C3=CC=CC=C3C)CN4C=NC5=C(N=CN=C54)N
Outline: as §1

[4] = compound: Cc1sc2c(c1C)C(c1ccc(Cl)cc1)=N[C@@H](CC(=O)OC(C)(C)C)c1nnc(C)n1-2
Outline: as §1

[5] = compound: c1ccc([C@@H]2C[C@H]2NC2CCNCC2)cc1
Outline: as §1

Measured: log2 fold change

DYNC1H1 (UniProt Q14204)
inactive: [1] -0.017 | [2] -0.004 | [3] 0.022 | [4] 0.026 | [5] 0.04

E2F4 (UniProt Q16254)
inactive: [1] -0.043 | [2] -0.063 | [3] -0.004 | [4] 0.038 | [5] -0.042

DPP7 (UniProt Q9UHL4)
inactive: [1] 0.019 | [2] -0.036 | [3] 0.04 | [4] -0.034 | [5] 0.01

EHBP1 isoform 2 (UniProt Q8NDI1)
inactive: [1] 0.039 | [2] -0.037 | [3] 0.046 | [4] -0.014 | [5] 0.071

DPYSL2 (UniProt Q16555)
inactive: [1] 0.04 | [2] -0.013 | [3] 0.012 | [4] -0.012 | [5] 0

EFCAB14 (UniProt O75071)
inactive: [1] 0.099 | [2] -0.074 | [3] 0.088 | [4] -0.014 | [5] 0.013

DTNBP1 (UniProt Q96EV8)
inactive: [1] 0.017 | [2] 0.043 | [3] 0.019 | [4] 0.002 | [5] 0.021

EFHD1 (UniProt Q9BUP0)
inactive: [1] -0.014 | [2] 0.025 | [3] -0.04 | [4] 0.028 | [5] -0.13

EIF1 (UniProt P41567)
inactive: [1] 0.146 | [2] -0.034 | [3] -0.031 | [4] -0.035 | [5] -0.114

DPH2 (UniProt Q9BQC3)
inactive: [1] 0.028 | [2] 0.056 | [3] 0.021 | [4] 0.039 | [5] -0.041

DYM (UniProt Q7RTS9)
inactive: [1] 0.021 | [2] -0.008 | [3] 0.003 | [4] 0.025 | [5] 0.013

ECSIT (UniProt Q9BQ95)
inactive: [1] 0.097 | [2] 0.107 | [3] 0.032 | [4] 0.008 | [5] 0.02

DRG1 (UniProt Q9Y295)
inactive: [1] -0.006 | [2] 0.007 | [3] -0.002 | [4] 0.022 | [5] 0.006

DYNC1LI1 (UniProt Q9Y6G9)
inactive: [1] -0.009 | [2] 0.013 | [3] -0.017 | [4] 0 | [5] 0.005

DUS3L (UniProt Q96G46)
inactive: [1] 0.084 | [2] -0.001 | [3] 0.005 | [4] -0.001 | [5] 0.098

DRAP1 (UniProt E9PQX9)
inactive: [1] -0.016 | [2] 0.013 | [3] 0.024 | [4] 0.081 | [5] -0.06

DYNLT1 (UniProt P63172)
inactive: [1] 0.037 | [2] -0.037 | [3] 0.012 | [4] 0.032 | [5] -0.123

DUSP9 (UniProt Q99956)
inactive: [1] -0.106 | [2] 0.01 | [3] 0.097 | [4] 0.119 | [5] 0.02

ECE1 (UniProt P42892)
inactive: [1] -0.053 | [2] 0.074 | [3] 0.001 | [4] -0.006 | [5] 0.002

EBP (UniProt Q15125)
inactive: [1] -0.011 | [2] -0.061 | [3] 0.022 | [4] 0.09 | [5] -0.141

EIF1B (UniProt O60739)
inactive: [1] 0.28 | [2] -0.004 | [3] 0.192 | [4] -0.108 | [5] -0.245

EAPP (UniProt Q56P03)
inactive: [1] 0.008 | [2] 0.048 | [3] 0.137 | [4] 0.029 | [5] -0.079

DSCC1 (UniProt Q9BVC3)
inactive: [1] -0.073 | [2] -0.021 | [3] 0.015 | [4] 0.122 | [5] 0.076

DPH1 (UniProt Q9BZG8)
inactive: [1] 0.04 | [2] 0.02 | [3] -0.014 | [4] 0.018 | [5] 0

EEF1E1 (UniProt O43324)
inactive: [1] 0.007 | [2] -0.032 | [3] -0.014 | [4] 0.028 | [5] 0.042

DVL2 (UniProt O14641)
inactive: [1] -0.012 | [2] -0.01 | [3] 0.032 | [4] 0.098 | [5] -0.017

DTWD1 (UniProt Q8N5C7)
inactive: [1] -0.003 | [2] 0.075 | [3] -0.004 | [4] 0.039 | [5] 0.095

ECHS1 (UniProt P30084)
inactive: [1] -0.018 | [2] 0.024 | [3] -0.008 | [4] 0.035 | [5] 0.023

DPP3 (UniProt Q9NY33)
inactive: [1] -0.011 | [2] 0.026 | [3] -0.005 | [4] 0.03 | [5] 0.048

DRG2 (UniProt P55039)
inactive: [1] -0.002 | [2] 0.014 | [3] 0.026 | [4] -0.089 | [5] 0.012

ECI2 (UniProt O75521)
inactive: [1] 0.019 | [2] -0.005 | [3] 0.014 | [4] -0.009 | [5] -0.045

DUS2 (UniProt Q9NX74)
inactive: [1] 0.037 | [2] 0.018 | [3] -0.018 | [4] 0.055 | [5] 0.116

EDEM3 (UniProt Q9BZQ6)
inactive: [1] -0.053 | [2] 0.019 | [3] -0.004 | [4] -0.008 | [5] 0.017

4 consecutive entries already listed:
DTWD1 (UniProt Q8N5C7)
inactive: [1] -0.003 | [2] 0.075 | [3] -0.004 | [4] 0.039 | [5] 0.095

ECHS1 (UniProt P30084)
inactive: [1] -0.018 | [2] 0.024 | [3] -0.008 | [4] 0.035 | [5] 0.023

DPP3 (UniProt Q9NY33)
inactive: [1] -0.011 | [2] 0.026 | [3] -0.005 | [4] 0.03 | [5] 0.048

DRG2 (UniProt P55039)
inactive: [1] -0.002 | [2] 0.014 | [3] 0.026 | [4] -0.089 | [5] 0.012

Remaining list, next part:

EHD2 (UniProt Q9NZN4)
inactive: [1] -0.074 | [2] -0.065 | [3] 0.003 | [4] -0.069 | [5] 0.087

DPH7 (UniProt Q9BTV6)
inactive: [1] 0.002 | [2] 0.027 | [3] 0.063 | [4] -0.059 | [5] -0.06

ECHDC3 (UniProt Q96DC8)
inactive: [1] 0.132 | [2] -0.061 | [3] -0.203 | [4] -0.013 | [5] -0.101

DYNC2LI1 (UniProt Q8TCX1)
inactive: [1] 0.013 | [2] -0.052 | [3] -0.102 | [4] 0.025 | [5] -0.034

E2F3 (UniProt O00716)
inactive: [1] 0.042 | [2] -0.079 | [3] 0.046 | [4] 0 | [5] -0.064

DPY19L1, A0A1B0GW05
inactive: [1] 0.1 | [2] -0.014 | [3] -0.052 | [4] -0.02 | [5] 0.046

DYNC2H1 isoform 2 (UniProt Q8NCM8)
inactive: [1] -0.011 | [2] -0.034 | [3] -0.026 | [4] -0.084 | [5] -0.018

EEA1 (UniProt Q15075)
inactive: [1] 0.007 | [2] -0.01 | [3] -0.01 | [4] -0.019 | [5] 0.013

DPM1 (UniProt O60762)
inactive: [1] -0.01 | [2] 0.048 | [3] 0.022 | [4] 0.073 | [5] 0.093

EEF2 (UniProt P13639)
inactive: [1] -0.008 | [2] -0.008 | [3] -0.006 | [4] 0.007 | [5] 0.005

EDF1 (UniProt O60869)
inactive: [1] -0.01 | [2] 0.012 | [3] -0.006 | [4] -0.013 | [5] -0.028

DUSP22 isoform 2 (UniProt Q9NRW4)
inactive: [1] 0.05 | [2] -0.068 | [3] 0.038 | [4] 0.099 | [5] -0.028

EBNA1BP2 (UniProt Q99848)
inactive: [1] -0.006 | [2] -0.012 | [3] -0.036 | [4] -0.035 | [5] 0.014

DTX3L (UniProt Q8TDB6)
inactive: [1] 0.039 | [2] -0.02 | [3] -0.051 | [4] -0.027 | [5] -0.081

ECT2 (UniProt Q9H8V3)
inactive: [1] 0.014 | [2] 0.014 | [3] 0.065 | [4] 0.03 | [5] -0.033

ECD isoform 3 (UniProt O95905)
inactive: [1] -0.016 | [2] -0.014 | [3] 0.049 | [4] 0.053 | [5] -0.018

EIF1AD (UniProt Q8N9N8)
inactive: [1] 0.026 | [2] 0.004 | [3] -0.01 | [4] 0.037 | [5] -0.034

DYNLL2 (UniProt Q96FJ2)
inactive: [1] -0.075 | [2] 0.027 | [3] 0.021 | [4] 0.012 | [5] -0.034

EHMT1 (UniProt Q9H9B1)
inactive: [1] 0.001 | [2] 0.009 | [3] 0.068 | [4] 0.191 | [5] -0.05

EEF1AKMT2, A0A494BZY7
inactive: [1] 0.027 | [2] -0.047 | [3] -0.034 | [4] 0 | [5] 0.017
